Patent publication US6197536A (priority 1995, dated 2001)
Strings that start with PEPTIDE1 are HELM notation: dots part the residues, brackets hold end groups and non-standard residues.

Assay: general procedure: Fmoc solid-phase peptide synthesis in flow; NovaSyn KR 125 (Kieselguhr-polyamide with modified Rink amide linker, 0.1 mmol/g); PyBOP/HOBt/DIEA; DIPC/HOBt for L-(+)-lactic acid; symmetrical anhydride/DMAP for
Conditions: whole synthesis

Ac-Asp-Glu-Met-Glu-Glu-Thr-.psi.-[CCOO]1-Ala-Ser-His-Leu-Pro-Tyr-Lys(N. sup.ε -Ac)-NH2
difficulty met: Esterification of Thr to lactic acid required three repetitions to obtain a 70% yield, which was also accompanied by 3% racemization of the Thr residue. | isolated yield: yield 24%

PEPTIDE1{[ac].D.E.[Asp(EDANS)].E.E.[Abu].[Lac].S.[Lys(DABCYL)].[am]}$$$$V2.0
isolated yield: 45% | final purity (method not given) (HPLC): >98%
